# Measured values from the supplement of paper PMC10849652.
# By UniProt entry, the sequences of proteins in these tests, tags left out. Where a name states a change or a piece, a line headed by the entry shows the natural chain unless it says otherwise.
# UniProt P52848: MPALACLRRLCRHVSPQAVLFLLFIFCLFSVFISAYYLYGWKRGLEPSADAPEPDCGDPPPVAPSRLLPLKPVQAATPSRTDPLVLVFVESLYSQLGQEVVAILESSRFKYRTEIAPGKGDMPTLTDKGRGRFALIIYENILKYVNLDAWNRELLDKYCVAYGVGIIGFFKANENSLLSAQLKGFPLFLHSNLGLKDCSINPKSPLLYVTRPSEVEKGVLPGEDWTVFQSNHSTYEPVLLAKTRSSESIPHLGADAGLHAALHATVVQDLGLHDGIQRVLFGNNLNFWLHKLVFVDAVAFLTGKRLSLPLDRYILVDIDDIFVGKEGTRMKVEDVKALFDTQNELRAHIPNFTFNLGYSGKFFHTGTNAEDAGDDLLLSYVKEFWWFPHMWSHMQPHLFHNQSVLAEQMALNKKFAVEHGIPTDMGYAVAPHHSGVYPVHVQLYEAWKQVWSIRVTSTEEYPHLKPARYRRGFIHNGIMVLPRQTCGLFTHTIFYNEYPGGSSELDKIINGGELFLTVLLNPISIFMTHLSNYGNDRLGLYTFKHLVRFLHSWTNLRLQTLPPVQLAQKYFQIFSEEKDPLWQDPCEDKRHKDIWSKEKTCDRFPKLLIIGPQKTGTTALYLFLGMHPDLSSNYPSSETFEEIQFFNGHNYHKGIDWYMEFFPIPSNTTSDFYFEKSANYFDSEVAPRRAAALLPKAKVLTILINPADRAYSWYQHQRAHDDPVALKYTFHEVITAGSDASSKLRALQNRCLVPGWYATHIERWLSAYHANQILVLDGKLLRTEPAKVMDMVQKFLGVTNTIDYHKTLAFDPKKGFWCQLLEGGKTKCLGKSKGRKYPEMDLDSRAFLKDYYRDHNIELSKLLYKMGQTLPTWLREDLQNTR
# UniProt Q9BRA0: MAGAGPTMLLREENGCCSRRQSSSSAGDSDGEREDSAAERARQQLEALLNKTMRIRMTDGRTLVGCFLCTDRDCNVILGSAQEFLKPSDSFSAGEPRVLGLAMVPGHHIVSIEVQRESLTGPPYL
# UniProt Q9UK23: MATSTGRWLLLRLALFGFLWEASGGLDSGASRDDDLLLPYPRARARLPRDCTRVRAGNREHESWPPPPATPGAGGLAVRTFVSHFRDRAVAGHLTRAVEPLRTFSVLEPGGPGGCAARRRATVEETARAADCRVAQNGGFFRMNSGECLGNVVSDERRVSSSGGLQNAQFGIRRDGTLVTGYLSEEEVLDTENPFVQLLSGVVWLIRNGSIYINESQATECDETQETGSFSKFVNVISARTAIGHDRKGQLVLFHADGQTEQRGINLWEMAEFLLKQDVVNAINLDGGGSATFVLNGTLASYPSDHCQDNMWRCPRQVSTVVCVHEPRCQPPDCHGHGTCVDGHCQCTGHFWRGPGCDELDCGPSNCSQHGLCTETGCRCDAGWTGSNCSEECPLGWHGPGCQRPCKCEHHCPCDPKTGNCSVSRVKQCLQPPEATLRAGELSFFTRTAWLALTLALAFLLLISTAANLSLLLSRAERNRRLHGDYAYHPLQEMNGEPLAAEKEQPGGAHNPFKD
# UniProt Q8WUY8: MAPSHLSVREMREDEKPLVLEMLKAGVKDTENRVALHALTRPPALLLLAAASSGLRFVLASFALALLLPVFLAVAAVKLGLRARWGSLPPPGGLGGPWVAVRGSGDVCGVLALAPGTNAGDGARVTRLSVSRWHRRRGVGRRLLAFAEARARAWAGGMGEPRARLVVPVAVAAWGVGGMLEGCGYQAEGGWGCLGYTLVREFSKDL
# UniProt Q9BPX3, whole entry, looked up: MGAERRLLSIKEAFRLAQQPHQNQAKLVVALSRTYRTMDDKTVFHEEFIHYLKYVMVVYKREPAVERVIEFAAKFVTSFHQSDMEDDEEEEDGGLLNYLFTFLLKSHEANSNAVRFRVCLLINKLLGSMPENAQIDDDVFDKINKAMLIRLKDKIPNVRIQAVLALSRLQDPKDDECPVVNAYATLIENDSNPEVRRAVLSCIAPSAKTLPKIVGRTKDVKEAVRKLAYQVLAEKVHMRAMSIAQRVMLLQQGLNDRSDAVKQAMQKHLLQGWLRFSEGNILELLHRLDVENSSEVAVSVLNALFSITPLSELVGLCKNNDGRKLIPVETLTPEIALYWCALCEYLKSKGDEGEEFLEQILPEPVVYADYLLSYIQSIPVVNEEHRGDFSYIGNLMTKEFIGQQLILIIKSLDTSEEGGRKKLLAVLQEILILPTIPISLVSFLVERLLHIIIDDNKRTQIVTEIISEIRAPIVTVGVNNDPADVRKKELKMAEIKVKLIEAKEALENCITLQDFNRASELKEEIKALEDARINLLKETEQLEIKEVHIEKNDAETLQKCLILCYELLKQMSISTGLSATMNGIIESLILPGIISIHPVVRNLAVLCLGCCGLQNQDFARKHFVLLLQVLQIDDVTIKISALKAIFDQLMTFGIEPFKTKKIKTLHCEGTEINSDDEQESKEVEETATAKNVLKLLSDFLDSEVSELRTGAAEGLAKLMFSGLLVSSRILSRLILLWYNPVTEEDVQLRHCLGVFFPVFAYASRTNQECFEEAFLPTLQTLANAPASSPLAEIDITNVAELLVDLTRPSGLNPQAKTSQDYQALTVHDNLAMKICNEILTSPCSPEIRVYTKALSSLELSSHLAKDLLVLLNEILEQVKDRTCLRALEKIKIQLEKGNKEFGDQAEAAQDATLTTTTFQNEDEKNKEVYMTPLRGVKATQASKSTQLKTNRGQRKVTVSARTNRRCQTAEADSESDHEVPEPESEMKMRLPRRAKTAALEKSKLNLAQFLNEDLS
# NBDY, A0A0U1RRE5, UniProt A0A0U1RRE5, whole entry, looked up: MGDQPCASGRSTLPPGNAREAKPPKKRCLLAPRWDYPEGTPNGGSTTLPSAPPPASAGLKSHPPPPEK
# UniProt Q99747: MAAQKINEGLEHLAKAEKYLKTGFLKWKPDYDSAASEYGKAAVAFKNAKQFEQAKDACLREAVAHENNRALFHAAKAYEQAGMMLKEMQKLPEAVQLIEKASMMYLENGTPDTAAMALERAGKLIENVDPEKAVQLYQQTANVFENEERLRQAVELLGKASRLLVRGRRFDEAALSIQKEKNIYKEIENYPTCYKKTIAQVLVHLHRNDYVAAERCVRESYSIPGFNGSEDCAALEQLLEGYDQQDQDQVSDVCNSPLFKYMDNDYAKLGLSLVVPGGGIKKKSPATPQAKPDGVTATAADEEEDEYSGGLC
# UniProt Q5VVJ2: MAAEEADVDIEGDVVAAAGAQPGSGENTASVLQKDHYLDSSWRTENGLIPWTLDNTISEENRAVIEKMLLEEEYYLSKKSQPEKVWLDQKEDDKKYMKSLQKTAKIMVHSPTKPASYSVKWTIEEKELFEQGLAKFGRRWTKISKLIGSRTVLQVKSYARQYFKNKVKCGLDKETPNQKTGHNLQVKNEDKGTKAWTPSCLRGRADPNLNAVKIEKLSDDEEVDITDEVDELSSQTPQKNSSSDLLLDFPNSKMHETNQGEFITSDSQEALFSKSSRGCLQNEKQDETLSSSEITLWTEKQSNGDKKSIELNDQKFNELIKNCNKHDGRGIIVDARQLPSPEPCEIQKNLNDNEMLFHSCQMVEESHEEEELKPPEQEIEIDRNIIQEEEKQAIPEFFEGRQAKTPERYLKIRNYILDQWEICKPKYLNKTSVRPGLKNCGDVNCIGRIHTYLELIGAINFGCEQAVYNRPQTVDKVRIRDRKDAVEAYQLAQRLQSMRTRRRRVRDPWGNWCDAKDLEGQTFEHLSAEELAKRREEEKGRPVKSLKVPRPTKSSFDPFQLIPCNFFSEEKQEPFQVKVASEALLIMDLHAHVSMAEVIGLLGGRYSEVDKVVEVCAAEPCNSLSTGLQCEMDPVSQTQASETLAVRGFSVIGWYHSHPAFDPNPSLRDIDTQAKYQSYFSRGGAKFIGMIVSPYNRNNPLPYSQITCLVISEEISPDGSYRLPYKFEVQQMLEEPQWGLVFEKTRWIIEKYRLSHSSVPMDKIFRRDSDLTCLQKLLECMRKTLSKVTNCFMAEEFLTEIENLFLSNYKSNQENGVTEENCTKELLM
# Some of the results follow. Residues, ends and D or L forms follow the SMILES beside them. *: point of attachment. Cbz = O=C(OCc1ccccc1)*
# Tests used:
# Assay in all cases: log2 fold change, soluble protein after heating vs DMSO (PISA); higher = thermal stabilisation; K562 cells, 10 uM, 30 min; active = over 0.2 and 3.5 SD of the protein, either way, in both replicates (recomputed)
# erlotinib = compound: C#Cc1cccc(Nc2ncnc3cc(OCCOC)c(OCCOC)cc23)c1 [erlotinib]
# In short: (§1)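 Soluble protein was quantified by TMTpro 16plex LC-MS/MS after channel sums were equalised. It was obtained as the supernatant after 21,000xg for 90 min from pooled aliquots of K562 cells (2×10^6 cells/mL, 10 μM compound, 30 min) heated for 3 min across 48°C-58°C and extracted in PBS with 0.5% NP-40 at 4°C. Thermal stability values are relative to control samples and come from duplicates. They are given as log2 fold changes.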
# [1] = compound: C/C(=N\NC(=O)C1=CC(=CC=C1)S(=O)(=O)N2CCOCC2)/C3=C(C=CC(=C3)Cl)O
# In short: as §1
# [2] = compound: C1=CC(=C(C=C1Cl)C2=NC3=NC=CN=C3C(=N2)NC4=CC=NC=C4)F
# In short: as §1
# [3] = compound: C1=CC(=CC=C1C2=NC3=C(N2)C=C(C=C3)C(=O)N)OC4=CC=C(C=C4)Cl
# In short: as §1
# [4] = compound: C1=CC2=C(C=CC(=C2)/C=C\3/C(=O)NC(=NCC4=CC=CS4)S3)N=C1
# In short: as §1
# [5] = compound: C1=CC2=NC=CN=C2C=C1/C=C/3\C(=O)NC(=O)S3
# In short: as §1
# [6] = compound: C1=CC=C2C(=C1)C3=NNC4=CC=CC(=C43)C2=O
# In short: as §1
# [7] = compound: C1CCN(C1)C(=O)NC2=CC=CC(=C2)NC3=NC=C(C(=N3)NCCC4=CN=CN4)Br
# In short: as §1
# [8] = compound: C1CN(CCC1(CC2=CC=C(C=C2)Cl)N)C3=NC=NC4=C3C=CN4
# In short: as §1
# IRAK-1-4 Inhibitor I = compound: C1COCCN1CCN2C3=CC=CC=C3N=C2NC(=O)C4=CC(=CC=C4)[N+](=O)[O-] [IRAK-1-4 Inhibitor I]
# In short: as §1
# ibrutinib = compound: C=CC(=O)N1CCC[C@@H](n2nc(-c3ccc(Oc4ccccc4)cc3)c3c(N)ncnc32)C1 [ibrutinib]
# In short: as §1
# [9] = compound: CC(=O)c1cnc2ccc(-c3cc(Cl)c(O)c(Cl)c3)nc2c1N[C@H]1CC[C@H](CN(C)C)CC1
# In short: as §1
# [10] = compound: CC(C)(O)CC(=O)NCCn1ccc2ncnc(Nc3ccc(Oc4cccc(C(F)(F)F)c4)c(Cl)c3)c21
# In short: as §1
# [11] = compound: CC(C)C1=C2N=C(C=C(N2N=C1)NCC3=CC=CC=C3)NCCCCCCN
# In short: as §1
# pinometostat = compound: CC(C)N(C[C@H]1O[C@@H](n2cnc3c(N)ncnc32)[C@H](O)[C@@H]1O)[C@H]1C[C@@H](CCc2nc3cc(C(C)(C)C)ccc3[nH]2)C1 [pinometostat]
# In short: as §1
# [12] = compound: CC1=C(C(CC(=O)N1)C2=CC=C(C=C2)C(F)(F)F)C(=O)NC3=C(C=C4C(=C3)C=NN4)F
# In short: as §1
# [13] = compound: CC1=C(C2=C(C=C1)C(=O)C3=CC=CC=C3N2CCCN)C
# In short: as §1
# [14] = compound: C1=CC=C(C=C1)C2=NC(=C(N2)C3=CC=NC=C3)C4=CC(=C(C=C4)Cl)O
# In short: as §1
# ralimetinib = compound: CC(C)(C)Cn1c(N)nc2ccc(-c3[nH]c(C(C)(C)C)nc3-c3ccc(F)cc3)nc21 [ralimetinib]
# In short: as §1
# [15] = compound: CC(C)C[C@@H](C=O)NC(=O)[C@H](CC(C)C)NC(=O)[C@H](CC(C)C)NC(=O)OCc1ccccc1
# In short: as §1
Target,log2 fold change (erlotinib),log2 fold change [1],log2 fold change [2],log2 fold change [3],log2 fold change [4],log2 fold change [5],log2 fold change [6],log2 fold change [7],log2 fold change [8],log2 fold change (IRAK-1-4 Inhibitor I),log2 fold change (ibrutinib),log2 fold change [9],log2 fold change [10],log2 fold change [11],log2 fold change (pinometostat),log2 fold change [12],log2 fold change [13],log2 fold change [14],log2 fold change (ralimetinib),log2 fold change [15]
NDST1 (UniProt P52848),inactive: 0.109,inactive: 0.123,inactive: -0.013,inactive: -0.01,inactive: -0.025,inactive: -0.069,inactive: -0.016,inactive: -0.043,inactive: 0.004,inactive: 0.08,inactive: 0.045,inactive: -0.038,inactive: 0.043,inactive: -0.009,inactive: -0.041,inactive: -0.095,inactive: 0.083,,,
NAA38 isoform 2 (UniProt Q9BRA0),inactive: 0.139,inactive: 0.083,inactive: 0.092,inactive: -0.003,inactive: 0.034,inactive: 0.015,inactive: -0.016,inactive: -0.009,inactive: 0.082,inactive: 0.047,inactive: -0.021,inactive: -0.034,inactive: -0.095,active: -0.397,inactive: 0.035,,inactive: -0.01,inactive: 0.044,inactive: 0.02,inactive: -0.001
NAGPA (UniProt Q9UK23),inactive: 0.046,inactive: 0.023,inactive: 0.046,inactive: 0.056,inactive: 0.033,inactive: -0.018,inactive: -0.025,inactive: -0.013,inactive: 0.148,inactive: -0.078,inactive: 0.228,inactive: -0.014,inactive: 0.03,inactive: 0.112,inactive: 0.052,,inactive: -0.062,,,
NEB isoform 3 (UniProt P20929),inactive: -0.063,inactive: 0.03,inactive: -0.027,inactive: -0.036,inactive: 0.048,inactive: 0.048,inactive: -0.002,,,,inactive: 0.022,inactive: -0.085,inactive: 0.002,inactive: 0.106,,inactive: 0.027,,inactive: 0.017,inactive: -0.009,inactive: 0.063
NAT14 (UniProt Q8WUY8),inactive: -0.016,inactive: 0.079,inactive: -0.002,inactive: 0.014,inactive: 0.057,inactive: 0.046,inactive: 0.033,inactive: 0.002,inactive: -0.084,inactive: -0.061,inactive: 0.019,inactive: -0.033,inactive: -0.257,inactive: -0.185,inactive: -0.074,,inactive: -0.187,inactive: 0.135,inactive: -0.028,inactive: 0.027
NCAPG (UniProt Q9BPX3),inactive: -0.007,inactive: 0.114,inactive: 0.013,inactive: -0.03,inactive: 0.005,inactive: 0.002,inactive: 0.043,inactive: -0.044,inactive: -0.104,inactive: -0.092,inactive: -0.033,inactive: 0.084,inactive: -0.126,inactive: -0.197,inactive: -0.003,,inactive: 0.016,inactive: 0.027,inactive: 0.038,inactive: -0.005
"NBDY, A0A0U1RRE5",inactive: 0.157,inactive: -0.153,inactive: 0.391,inactive: -0.038,inactive: 0.033,inactive: -0.007,inactive: 0.048,inactive: 0.288,inactive: -0.005,,inactive: 0.034,inactive: -0.083,inactive: -0.068,inactive: 0.244,,inactive: -0.007,inactive: 0.173,inactive: 0.08,inactive: -0.001,inactive: -0.019
NAPG (UniProt Q99747),inactive: 0.081,inactive: 0.134,inactive: 0.072,inactive: -0.019,inactive: 0.021,inactive: 0.038,inactive: 0.033,inactive: -0.037,inactive: -0.016,inactive: -0.071,inactive: -0.014,inactive: -0.067,inactive: -0.069,inactive: -0.248,inactive: 0.016,,inactive: 0.016,inactive: -0.009,inactive: -0.012,inactive: 0.028
NA (UniProt J3KR12),,,inactive: -0.073,,,inactive: 0.254,,,,inactive: -0.191,inactive: -0.159,,inactive: -0.1,,inactive: 0.053,,,inactive: 0.075,inactive: 0.011,inactive: 0.017
MYSM1 (UniProt Q5VVJ2),,,,,,inactive: 0.173,,,,inactive: -0.264,inactive: 0.291,,,,inactive: 0.153,,,inactive: 0.37,inactive: -0.022,inactive: -0.061
NAP1L4 (UniProt C9J6D1),,inactive: 0.132,,,inactive: -0.237,,inactive: -0.174,,,inactive: 0.025,,inactive: -0.572,,,inactive: -0.038,,,,,

# Some of the entries so far, with bars between the fields.
Target | log2 fold change (erlotinib) | log2 fold change [1] | log2 fold change [2] | log2 fold change [3] | log2 fold change [4] | log2 fold change [5] | log2 fold change [6] | log2 fold change [7] | log2 fold change [8] | log2 fold change (IRAK-1-4 Inhibitor I) | log2 fold change (ibrutinib) | log2 fold change [9] | log2 fold change [10] | log2 fold change [11] | log2 fold change (pinometostat) | log2 fold change [12] | log2 fold change [13] | log2 fold change [14] | log2 fold change (ralimetinib) | log2 fold change [15]
NAT14 (UniProt Q8WUY8) | inactive: -0.016 | inactive: 0.079 | inactive: -0.002 | inactive: 0.014 | inactive: 0.057 | inactive: 0.046 | inactive: 0.033 | inactive: 0.002 | inactive: -0.084 | inactive: -0.061 | inactive: 0.019 | inactive: -0.033 | inactive: -0.257 | inactive: -0.185 | inactive: -0.074 |  | inactive: -0.187 | inactive: 0.135 | inactive: -0.028 | inactive: 0.027
NCAPG (UniProt Q9BPX3) | inactive: -0.007 | inactive: 0.114 | inactive: 0.013 | inactive: -0.03 | inactive: 0.005 | inactive: 0.002 | inactive: 0.043 | inactive: -0.044 | inactive: -0.104 | inactive: -0.092 | inactive: -0.033 | inactive: 0.084 | inactive: -0.126 | inactive: -0.197 | inactive: -0.003 |  | inactive: 0.016 | inactive: 0.027 | inactive: 0.038 | inactive: -0.005
